Source: patent US20200338132A1, “COMPOSITIONS AND METHODS FOR THE EXPANSION OF HEMATOPOIETIC STEM AND PROGENITOR CELLS AND TREATMENT OF INHERITED METABOLIC DISORDERS” (Magenta Therapeutics Inc., priority 2018, published 2020)
Entries after “also recorded” stand apart in the source; their conditions may differ. At least one structure is not confirmed: it was looked up by name or label, or the drawing left a doubt.

Tested on: cord blood CD34+ cells
Assay: phenotypic expansion of cord blood CD34+ cells, CD90+ cell number at optimal concentrations
Type: cell-based, human
Conditions: relative to vehicle-treated cells

## C/C=C1\NC(=O)[C@H]2CSSCC/C=C/[C@H](CC(=O)N[C@H](C(C)C)C(=O)N2)OC(=O)[C@H](C(C)C)NC1=O [Romidepsin]
  CD90+ cell number following expansion: increased number of CD90+ expressing cells; also recorded: largest increases in CD90+ cell numbers
